Source: PubChem BioAssay AID504764 (Drosophila RNAi Screening Center, 2011)
Aim: 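Genome-wide screen for regulators of Notch-driven gene expression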 (primary screen). Cells: Drosophila Kc167 cells. Reagents: long dsRNA against Drosophila genes. Time to read-out: about 5 days (4 days dsRNA, then 24 h after transfection). Conditions: transfection of constitutively active membrane-tethered Notch lacking the extracellular domain, read 24 h later. Read-out: 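Light from a Notch-responsive E(spl)m3 luciferase reporter under active Notch, with control-promoter and no-Notch reporter wells to normalise; raw counts from paired wells a and b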. Direction: induced reporter light, run 1, well a and induced reporter light, run 1, well b: higher = more light from the Notch target reporter with active Notch; control promoter light, run 1, well a and control promoter light, run 1, well b: higher = more light from the viral control promoter (cell number, transfection, viability); uninduced reporter light, run 1, well a: higher = more light from the Notch target reporter without active Notch. Active means: 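Wells with low control signal or poorly matching duplicates excluded; duplicates averaged; per source plate, z beyond ±2 for induced/control log2 ratio or beyond ±1.8 for induced/uninduced marks a hit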. Calls: active = modifier hit (raised or lowered Notch signal); inactive = not a hit.
The deposit covers about 22,000 reagents; shown is a random part of those that have a named target and a result. Over the whole deposit, 403 (1.9%) were called active. 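Unnormalised raw counts per well; ratio z-scores behind the hit calls and whether each hit raises or lowers signal are not deposited.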 A plus sign joins genes that one reagent is predicted to hit. The record does not give: the amount of reagent.

gene knocked down,amplicon,"induced reporter light, run 1, well a","induced reporter light, run 1, well b","control promoter light, run 1, well a","control promoter light, run 1, well b","uninduced reporter light, run 1, well a",outcome
CG8543,DRSC10990,2.13e5,2.16e5,2.47e5,2.13e5,8715,inactive
CG8543,DRSC22809,,,,,,inactive
Traf6,DRSC18725,1.32e5,1.36e5,2.77e5,2.28e5,10545,inactive
Mec2,DRSC20054,1.26e5,1.21e5,96975,69790,9465,inactive
fu,DRSC20333,65425,70040,59025,66320,7095,inactive
Gyc89Db,DRSC15009,2.33e5,2.50e5,3.17e5,3.72e5,19410,inactive
Pldn,DRSC10137,1.10e5,1.55e5,2.30e5,1.99e5,5438,inactive
CG1233,DRSC08269,89060,1.01e5,1.82e5,1.54e5,7440,inactive
beat-IIb,DRSC13219,12138,11980,16955,19068,3125,inactive
beat-IIb,DRSC14816,2.37e5,2.54e5,2.50e5,2.57e5,18930,inactive
beat-IIb,DRSC15546,2.40e5,2.80e5,2.39e5,2.48e5,21600,inactive
Alp8,DRSC04353,61175,54330,74910,80045,2805,inactive
kat80,DRSC20344,34605,32950,33280,27175,3580,inactive
kat80,DRSC20345,59780,67725,87535,51960,10520,inactive
Poc1,DRSC09713,1.58e5,1.49e5,1.32e5,86000,13475,inactive
CG42299 + CG42300,DRSC19680,60675,46965,65465,52230,8032,inactive
CG42299 + CG42300,DRSC19815,84465,50240,77105,58060,10790,inactive
CG14332,DRSC14811,1.80e5,1.94e5,1.83e5,1.83e5,13100,inactive
Amyrel,DRSC05920,1.05e5,1.07e5,1.89e5,1.81e5,8310,inactive
SWIP,DRSC19540,35290,32925,27620,26995,4395,inactive
Tehao,DRSC03449,1.36e5,1.35e5,1.51e5,1.77e5,11130,inactive
RhoGEF2,DRSC07531,1.15e5,1.26e5,1.79e5,2.43e5,9180,inactive
Ir68b,DRSC10251,1.71e5,1.34e5,1.88e5,1.60e5,7565,inactive
Gapdh1,DRSC07433,2.52e5,2.20e5,2.32e5,2.67e5,21115,inactive
CR12628 + Mgstl,DRSC03702,49435,53025,41865,30340,2850,inactive
CR12628 + Mgstl,DRSC20568,1.26e5,1.44e5,1.46e5,1.54e5,13475,inactive
CG10035,DRSC14177,80330,67470,78490,57810,4150,inactive
7B2,DRSC11991,70875,68860,70900,61875,7040,inactive
Pxn,DRSC08685,1.04e5,1.14e5,2.22e5,2.28e5,7520,inactive
Trs23,DRSC03190,1.75e5,2.14e5,1.11e5,1.30e5,23015,inactive
CG10822,DRSC06005,48425,33200,42035,41265,5325,inactive
Vtld + CG42529,DRSC10102,1.57e5,1.27e5,1.06e5,1.20e5,9055,inactive
CG33346,DRSC22898,,,,,,inactive
Cyp313b1,DRSC16629,1.01e5,98855,1.03e5,80570,8532,inactive
Nmdar1,DRSC12071,1.61e5,1.44e5,1.63e5,1.52e5,12055,inactive
Nmdar1,DRSC12356,87235,1.18e5,98030,77190,5420,inactive
CG34223,DRSC05268,1.81e5,2.30e5,2.65e5,3.14e5,24082,inactive
Grl58a,DRSC04145,49790,35375,37230,45465,2242,inactive
Fbxl7,DRSC15553,1.95e5,2.01e5,1.92e5,1.68e5,16720,inactive
Vps4,DRSC19338,77570,64335,56870,34100,5005,inactive
CG31635,DRSC02273,2.27e5,2.00e5,2.03e5,2.16e5,14160,inactive
CG31635,DRSC02274,1.16e5,1.29e5,1.06e5,84500,13220,inactive
CG14929 + CG4970,DRSC02411,1.04e5,1.37e5,71940,81180,16215,inactive
CG14929 + CG4970,DRSC02796,1.45e5,1.41e5,75850,1.03e5,16328,inactive
mRpL47,DRSC16827,77705,73440,62555,45145,4350,inactive
Coq7 + shf,DRSC18448,1.91e5,1.41e5,2.33e5,2.24e5,12435,inactive
CG31087,DRSC14253,1.66e5,1.60e5,2.20e5,2.16e5,15005,inactive
CG3552,DRSC10370,1.43e5,1.18e5,2.41e5,1.30e5,8280,inactive
Rpn2,DRSC16839,12275,13670,12995,16270,735,inactive
CG5644,DRSC10531,2.02e5,2.47e5,2.37e5,2.51e5,15705,inactive
Mdh1 (retired record),DRSC02846,1.30e5,1.45e5,63910,99765,16255,inactive
CG8152,DRSC07083,73835,73300,1.12e5,1.10e5,6345,inactive
CG30274,DRSC04171,1.97e5,1.43e5,1.75e5,1.81e5,12920,inactive
comt,DRSC20319,1.19e5,1.06e5,2.52e5,2.30e5,9500,inactive
CG3803,DRSC04420,1.85e5,1.85e5,1.63e5,1.50e5,12055,inactive
RpL3,DRSC16834,66275,62960,45500,27235,8460,inactive
Pgant9,DRSC05621,78735,84130,1.56e5,1.01e5,9070,inactive
Pgant9,DRSC06584,49265,31550,48460,44435,3605,inactive
Pgant9,DRSC07185,1.28e5,98525,1.11e5,88575,6180,inactive
Pgant9,DRSC07186,56650,56395,87510,76945,6305,inactive
Pgant9,DRSC07187,1.22e5,1.03e5,1.96e5,1.91e5,10445,inactive
Pgant9,DRSC07189,48870,27450,47460,56330,3850,inactive
Gr64b,DRSC08444,1.69e5,1.88e5,2.26e5,1.98e5,8650,inactive
PGRP-SC1a,DRSC06482,1.99e5,1.89e5,2.14e5,2.14e5,16785,inactive
